Laboratory results taken from article PMC10352345.
Results are given in words; binding and its absence hold for the method and conditions named. For some assays here: In cells and extracts the contact can be indirect. Some binding calls cover weakened binding; strength is not graded here.

Legend:
[1] = target: DR5, endogenous in mouse kidney (mouse (endogenous in kidney)) (UniProt Q9QZM4); test: native gel or EMSA; cells or renal tissues lysed in NETN buffer (20 mM Tris-HCl pH 8.0, 100 mM NaCl, 0.5 mM EDTA, 0.5% NP-40); 12% native PAGE without SDS/DTT/β-mercaptoethanol; blot with anti-DR5; cisplatin or bIRI, KIM1 overexpression or knockout, nystatin
[2] = target: T1, KIM1, endogenous in mouse kidney (mouse (endogenous in kidney)) (UniProt Q5QNS5); test: co-IP; kidneys of mice at Day 3 after cisplatin injury, with or without peptide P2 treatment; IP with anti-KIM1 or IgG; DR5 detected with anti-DR5; pooled samples from 4 mice per lane
T1 sequence: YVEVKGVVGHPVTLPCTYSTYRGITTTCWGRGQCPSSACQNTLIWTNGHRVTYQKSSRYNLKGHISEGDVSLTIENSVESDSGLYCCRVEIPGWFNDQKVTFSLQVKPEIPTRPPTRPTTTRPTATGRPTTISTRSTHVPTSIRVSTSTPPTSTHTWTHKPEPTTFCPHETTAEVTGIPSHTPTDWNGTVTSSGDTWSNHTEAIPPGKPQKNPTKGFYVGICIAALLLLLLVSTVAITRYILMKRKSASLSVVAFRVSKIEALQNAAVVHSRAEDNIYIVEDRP

binding [1]: binds
B1: DR5, endogenous in mouse kidney (receptor, UniProt Q9QZM4 53-381)
chain: NPAHNRPAGLQRPEESPSRGPCLAGQYLSEGNCKPCREGIDYTSHSNHSLDSCILCTVCKEDKVVETRCNITTNTVCRCKPGTFEDKDSPEICQSCSNCTDGEEELTSCTPRENRKCVSKTAWASWHKLGLWIGLLVPVVLLIGALLVWKTGAWRQWLLCIKRGCERDPESANSVHSSLLDRQTSSTTNDSNHNTEPGKTQKTGKKLLVPVNGNDSADDLKFIFEYCSDIVPFDSWNRLMRQLGLTDNQIQMVKAETLVTREALYQMLLKWRHQTGRSASINHLLDALEAVEERDAMEKIEDYAVKSGRFTYQNAAAQPETGPGGSQCV
binding [2]: binds
